No constants are given. Whether binding was seen depends on the method and setting. In cells and extracts the contact can be indirect. Binding can be weak; no strength is given. Sequences can lack the tags named with a protein.
Molecular target: T1, C-terminus His6-tagged PNPase (polynucleotide phosphorylase, DR_2063) of D. radiodurans (D. radiodurans) (UniProt Q9RSR1)
T1 sequence: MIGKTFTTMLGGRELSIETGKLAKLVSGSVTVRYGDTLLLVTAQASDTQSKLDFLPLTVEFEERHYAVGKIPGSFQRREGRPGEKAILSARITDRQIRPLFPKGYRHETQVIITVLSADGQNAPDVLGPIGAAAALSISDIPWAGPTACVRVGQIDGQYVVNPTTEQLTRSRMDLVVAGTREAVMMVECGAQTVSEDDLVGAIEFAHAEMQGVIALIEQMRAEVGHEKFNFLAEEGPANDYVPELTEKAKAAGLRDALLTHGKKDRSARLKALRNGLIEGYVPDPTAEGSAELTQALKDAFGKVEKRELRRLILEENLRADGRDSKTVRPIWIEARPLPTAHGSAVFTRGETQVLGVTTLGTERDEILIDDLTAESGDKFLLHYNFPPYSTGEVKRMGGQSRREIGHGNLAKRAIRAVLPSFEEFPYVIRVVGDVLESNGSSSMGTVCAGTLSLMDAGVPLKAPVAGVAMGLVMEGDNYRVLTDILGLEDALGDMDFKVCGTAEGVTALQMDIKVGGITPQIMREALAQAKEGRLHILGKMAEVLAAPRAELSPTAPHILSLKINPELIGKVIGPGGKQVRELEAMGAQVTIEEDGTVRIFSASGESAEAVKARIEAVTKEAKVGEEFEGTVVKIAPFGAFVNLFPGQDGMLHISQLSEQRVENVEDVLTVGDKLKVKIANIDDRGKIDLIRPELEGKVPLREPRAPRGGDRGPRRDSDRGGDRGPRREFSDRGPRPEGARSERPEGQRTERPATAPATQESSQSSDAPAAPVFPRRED
Test: co-IP; C-terminal His6-tagged PNPase from pRADgro as bait in D. radiodurans strains with chromosomal 3×FLAG-tagged RhlB, RpsA or Rho; formaldehyde cross-linking, sonication; 500 μg lysate treated with or without RNase A and T1, then Ni-NTA magnetic beads; Western blot with anti-FLAG antibody; His6 tag alone as control

binding	Substance
binds	RhlB-3×FLAG (chromosomally tagged RhlB, DR_0335) (D. radiodurans) (enzyme)
binds	RpsA-3×FLAG (chromosomally tagged ribosomal protein S1, DR_1983) (D. radiodurans)

Source: article PMC9430589
